Paper PMC13561875

Biological target: human recombinant insulin (human)
Test: ELISA; polyreactivity ELISA; plates coated with 5 μg ml^−1 human recombinant insulin in 0.05 M carbonate-bicarbonate buffer overnight at room temperature, blocked with 2% BSA; antibodies at 4 μg ml^−1 followed by three serial dilutions (1:4), 1 hour at room temperature; detection with anti-human IgG HRP, OD 450 nm; both purified

binding | Binder
binds | RA32 antibody (antibody, V domains shown) VH: QVQLRQPGIELAKSGTSVKLSCKASGFTFTSYWMHWVRQRPGQGLEWIGHINPNKDGINFNERFKTKATLTVDRSSATAFMQLSSLTSADSAVYYCARWGPGYFDYWGQGTTLTVSS VL: DLVLTQSPASVAVSPGQRATISCRVSESIDNFGISFMNWFQQKPGQPPKLLIYFASKQGSGVPARFTGSGSGTNFSLNIHPMEEDDTAMYFCQQSKEVPYTFGGGTKLEIK
no binding (tested: 4 μg ml^−1) | AT5 antibody (antibody, V domains shown) VH: QVQLQQPGAELVKPGASLKLSCQASGYIFTSYWLHWVKQRPGQGLEWIGMILPNSGSTYYNEEFKTKAALTVDKSSSTAYMQLTSLTSEDSAVYYCARSTTVVASPYVMDYWGQGTSVTVSS VL: DIVLTQSPATLSVTPGDSVSLSCRASQNISNNLHWCQQKSHESPRLLIKYASQSISGIPSRFSGSGSGADFTLSLNSVETEDFGMYFCQQTNSWPLTFGAGTKLELK

No constants are given. Whether binding was seen depends on the method and setting. A result given as binding can be weak or reduced; the word gives no strength.
